Experimental data published in PMC11914695.
No constants are given. Whether binding was seen depends on the method and setting. Binding seen in cells or lysates may run through a third protein. Here binding means that the protein was enriched with, or labelled near, the bait; the list need not be complete. For some assays here: Sequences can lack the tags named with a protein.

Chains of the proteins cited; added tags and fusions are not shown.
UniProt Q96GD4: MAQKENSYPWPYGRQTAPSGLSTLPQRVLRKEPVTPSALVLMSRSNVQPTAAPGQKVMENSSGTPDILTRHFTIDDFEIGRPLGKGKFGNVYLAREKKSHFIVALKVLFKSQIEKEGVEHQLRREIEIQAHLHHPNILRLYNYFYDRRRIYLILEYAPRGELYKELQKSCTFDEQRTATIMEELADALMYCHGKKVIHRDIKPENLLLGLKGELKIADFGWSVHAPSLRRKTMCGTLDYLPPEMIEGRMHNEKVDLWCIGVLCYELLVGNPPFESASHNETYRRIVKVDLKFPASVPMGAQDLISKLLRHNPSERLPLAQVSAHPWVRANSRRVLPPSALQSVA
UniProt Q8NG31: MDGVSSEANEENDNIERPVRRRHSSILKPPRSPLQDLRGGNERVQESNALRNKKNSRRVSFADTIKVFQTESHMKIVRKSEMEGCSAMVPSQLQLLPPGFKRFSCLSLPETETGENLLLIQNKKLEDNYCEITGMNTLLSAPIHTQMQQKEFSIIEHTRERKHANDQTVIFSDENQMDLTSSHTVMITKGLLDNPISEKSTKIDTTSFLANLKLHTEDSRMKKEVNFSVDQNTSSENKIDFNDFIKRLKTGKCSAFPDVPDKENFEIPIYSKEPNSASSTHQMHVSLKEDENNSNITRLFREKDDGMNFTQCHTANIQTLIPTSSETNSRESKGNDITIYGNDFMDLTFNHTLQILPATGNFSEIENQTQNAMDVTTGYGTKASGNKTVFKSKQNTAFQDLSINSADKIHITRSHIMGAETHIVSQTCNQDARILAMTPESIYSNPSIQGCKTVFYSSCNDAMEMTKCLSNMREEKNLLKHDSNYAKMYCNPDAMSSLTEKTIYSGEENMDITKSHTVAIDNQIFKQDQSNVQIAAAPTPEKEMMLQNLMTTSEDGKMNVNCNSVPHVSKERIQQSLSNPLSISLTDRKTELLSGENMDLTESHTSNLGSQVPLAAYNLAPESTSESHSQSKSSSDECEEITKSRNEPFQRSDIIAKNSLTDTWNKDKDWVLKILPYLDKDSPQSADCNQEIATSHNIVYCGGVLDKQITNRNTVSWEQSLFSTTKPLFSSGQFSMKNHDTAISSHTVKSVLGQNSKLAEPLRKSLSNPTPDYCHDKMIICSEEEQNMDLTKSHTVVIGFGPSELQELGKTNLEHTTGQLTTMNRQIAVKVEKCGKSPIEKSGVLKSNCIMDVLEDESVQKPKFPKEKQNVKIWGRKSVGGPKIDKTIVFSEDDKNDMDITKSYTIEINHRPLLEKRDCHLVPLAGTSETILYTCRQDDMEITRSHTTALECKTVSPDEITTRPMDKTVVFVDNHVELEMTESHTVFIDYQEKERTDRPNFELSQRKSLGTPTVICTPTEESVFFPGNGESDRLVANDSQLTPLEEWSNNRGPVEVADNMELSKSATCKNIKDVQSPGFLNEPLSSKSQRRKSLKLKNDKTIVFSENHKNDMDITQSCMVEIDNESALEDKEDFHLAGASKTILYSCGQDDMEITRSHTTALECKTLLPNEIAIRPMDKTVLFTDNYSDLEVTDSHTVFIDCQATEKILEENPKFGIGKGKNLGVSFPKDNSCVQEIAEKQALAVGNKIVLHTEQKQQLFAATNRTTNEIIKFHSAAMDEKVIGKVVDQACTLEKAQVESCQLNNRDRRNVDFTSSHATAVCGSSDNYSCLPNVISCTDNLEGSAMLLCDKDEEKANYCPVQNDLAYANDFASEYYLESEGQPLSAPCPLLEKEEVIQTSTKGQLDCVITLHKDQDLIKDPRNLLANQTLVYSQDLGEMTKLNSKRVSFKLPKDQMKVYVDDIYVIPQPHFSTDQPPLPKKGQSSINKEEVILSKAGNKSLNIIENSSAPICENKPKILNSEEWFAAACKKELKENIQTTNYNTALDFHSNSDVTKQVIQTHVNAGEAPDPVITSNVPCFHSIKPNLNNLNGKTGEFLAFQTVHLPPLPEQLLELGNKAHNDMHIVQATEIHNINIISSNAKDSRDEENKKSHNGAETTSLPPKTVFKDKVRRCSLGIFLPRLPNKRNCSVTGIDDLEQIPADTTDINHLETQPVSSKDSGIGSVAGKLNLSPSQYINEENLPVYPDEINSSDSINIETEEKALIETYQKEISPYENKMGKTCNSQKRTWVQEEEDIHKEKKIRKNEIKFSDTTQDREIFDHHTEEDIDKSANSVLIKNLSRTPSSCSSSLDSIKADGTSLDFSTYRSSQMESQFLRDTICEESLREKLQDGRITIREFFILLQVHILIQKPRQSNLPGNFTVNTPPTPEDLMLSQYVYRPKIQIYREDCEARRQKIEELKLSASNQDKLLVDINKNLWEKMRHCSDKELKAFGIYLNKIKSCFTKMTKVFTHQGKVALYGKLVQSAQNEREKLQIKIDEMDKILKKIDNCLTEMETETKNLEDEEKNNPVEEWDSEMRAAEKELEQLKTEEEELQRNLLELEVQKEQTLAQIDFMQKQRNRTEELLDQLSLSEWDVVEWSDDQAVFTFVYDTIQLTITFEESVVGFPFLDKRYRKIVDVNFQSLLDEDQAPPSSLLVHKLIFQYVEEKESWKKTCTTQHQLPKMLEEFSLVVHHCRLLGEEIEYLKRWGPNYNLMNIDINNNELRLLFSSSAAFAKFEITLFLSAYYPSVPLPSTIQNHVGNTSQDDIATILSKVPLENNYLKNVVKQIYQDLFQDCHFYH
UniProt Q02224: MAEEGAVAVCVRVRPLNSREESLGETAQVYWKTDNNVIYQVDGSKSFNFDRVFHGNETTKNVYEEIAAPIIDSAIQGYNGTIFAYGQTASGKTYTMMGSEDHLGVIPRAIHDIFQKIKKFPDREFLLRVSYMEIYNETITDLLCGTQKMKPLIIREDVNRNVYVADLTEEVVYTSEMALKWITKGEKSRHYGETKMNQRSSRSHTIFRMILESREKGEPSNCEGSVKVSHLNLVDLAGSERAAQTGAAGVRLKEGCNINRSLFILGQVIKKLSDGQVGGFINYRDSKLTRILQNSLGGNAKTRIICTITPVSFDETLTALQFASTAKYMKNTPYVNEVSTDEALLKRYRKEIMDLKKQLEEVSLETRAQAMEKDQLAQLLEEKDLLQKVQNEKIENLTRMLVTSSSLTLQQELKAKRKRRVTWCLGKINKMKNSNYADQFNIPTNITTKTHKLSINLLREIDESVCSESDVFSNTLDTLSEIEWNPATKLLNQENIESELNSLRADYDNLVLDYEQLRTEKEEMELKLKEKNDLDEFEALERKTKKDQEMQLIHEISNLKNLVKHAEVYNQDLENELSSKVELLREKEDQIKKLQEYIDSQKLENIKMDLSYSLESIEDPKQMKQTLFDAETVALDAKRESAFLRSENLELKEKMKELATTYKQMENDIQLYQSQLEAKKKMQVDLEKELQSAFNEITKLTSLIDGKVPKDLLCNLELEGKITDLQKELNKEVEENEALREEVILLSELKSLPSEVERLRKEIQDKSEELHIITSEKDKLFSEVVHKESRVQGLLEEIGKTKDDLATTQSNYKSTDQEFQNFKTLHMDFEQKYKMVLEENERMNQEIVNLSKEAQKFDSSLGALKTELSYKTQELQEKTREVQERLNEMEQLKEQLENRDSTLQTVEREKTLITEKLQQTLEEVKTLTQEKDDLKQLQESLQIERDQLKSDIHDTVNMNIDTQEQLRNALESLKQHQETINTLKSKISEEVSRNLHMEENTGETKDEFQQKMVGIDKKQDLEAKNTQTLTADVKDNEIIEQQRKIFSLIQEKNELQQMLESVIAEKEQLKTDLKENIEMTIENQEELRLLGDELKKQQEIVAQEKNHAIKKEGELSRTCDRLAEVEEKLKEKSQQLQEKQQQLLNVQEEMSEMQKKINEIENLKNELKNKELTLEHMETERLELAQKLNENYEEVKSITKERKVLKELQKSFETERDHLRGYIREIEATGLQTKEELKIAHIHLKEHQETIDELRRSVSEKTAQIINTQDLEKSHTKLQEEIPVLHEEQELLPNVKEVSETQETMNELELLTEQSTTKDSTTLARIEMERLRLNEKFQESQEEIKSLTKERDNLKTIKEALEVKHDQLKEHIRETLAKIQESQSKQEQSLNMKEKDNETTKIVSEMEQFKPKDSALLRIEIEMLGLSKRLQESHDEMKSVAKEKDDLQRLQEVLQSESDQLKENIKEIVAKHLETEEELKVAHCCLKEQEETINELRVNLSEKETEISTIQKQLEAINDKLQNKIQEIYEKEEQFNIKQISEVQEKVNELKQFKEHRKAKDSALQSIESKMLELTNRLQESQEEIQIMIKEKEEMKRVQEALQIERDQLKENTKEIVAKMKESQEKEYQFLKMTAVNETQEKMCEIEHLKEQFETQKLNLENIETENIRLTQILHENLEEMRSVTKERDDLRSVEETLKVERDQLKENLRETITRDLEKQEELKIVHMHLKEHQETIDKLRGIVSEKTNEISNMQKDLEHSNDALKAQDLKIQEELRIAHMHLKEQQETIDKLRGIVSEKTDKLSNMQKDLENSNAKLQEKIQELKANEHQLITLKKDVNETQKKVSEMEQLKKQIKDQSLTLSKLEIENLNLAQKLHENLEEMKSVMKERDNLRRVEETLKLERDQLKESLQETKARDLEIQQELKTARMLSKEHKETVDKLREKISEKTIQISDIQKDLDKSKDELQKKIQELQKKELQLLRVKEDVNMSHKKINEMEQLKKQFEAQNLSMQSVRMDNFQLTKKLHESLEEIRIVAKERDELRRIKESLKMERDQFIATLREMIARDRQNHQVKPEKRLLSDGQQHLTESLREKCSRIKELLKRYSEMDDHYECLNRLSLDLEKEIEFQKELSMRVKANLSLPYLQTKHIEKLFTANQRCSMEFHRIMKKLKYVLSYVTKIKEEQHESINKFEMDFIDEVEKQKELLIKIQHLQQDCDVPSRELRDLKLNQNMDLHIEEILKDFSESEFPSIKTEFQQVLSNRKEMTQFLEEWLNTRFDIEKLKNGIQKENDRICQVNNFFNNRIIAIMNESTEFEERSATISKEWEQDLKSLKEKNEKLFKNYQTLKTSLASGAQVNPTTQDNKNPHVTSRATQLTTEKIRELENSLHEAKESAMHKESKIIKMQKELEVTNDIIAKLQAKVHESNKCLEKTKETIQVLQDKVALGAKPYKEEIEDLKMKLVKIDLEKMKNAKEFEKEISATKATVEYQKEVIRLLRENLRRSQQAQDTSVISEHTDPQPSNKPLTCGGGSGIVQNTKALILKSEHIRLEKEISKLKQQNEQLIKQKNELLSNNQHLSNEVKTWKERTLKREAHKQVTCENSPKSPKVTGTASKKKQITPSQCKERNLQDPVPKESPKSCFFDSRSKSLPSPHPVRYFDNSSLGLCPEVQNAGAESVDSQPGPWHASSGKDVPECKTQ
UniProt Q9NQS7: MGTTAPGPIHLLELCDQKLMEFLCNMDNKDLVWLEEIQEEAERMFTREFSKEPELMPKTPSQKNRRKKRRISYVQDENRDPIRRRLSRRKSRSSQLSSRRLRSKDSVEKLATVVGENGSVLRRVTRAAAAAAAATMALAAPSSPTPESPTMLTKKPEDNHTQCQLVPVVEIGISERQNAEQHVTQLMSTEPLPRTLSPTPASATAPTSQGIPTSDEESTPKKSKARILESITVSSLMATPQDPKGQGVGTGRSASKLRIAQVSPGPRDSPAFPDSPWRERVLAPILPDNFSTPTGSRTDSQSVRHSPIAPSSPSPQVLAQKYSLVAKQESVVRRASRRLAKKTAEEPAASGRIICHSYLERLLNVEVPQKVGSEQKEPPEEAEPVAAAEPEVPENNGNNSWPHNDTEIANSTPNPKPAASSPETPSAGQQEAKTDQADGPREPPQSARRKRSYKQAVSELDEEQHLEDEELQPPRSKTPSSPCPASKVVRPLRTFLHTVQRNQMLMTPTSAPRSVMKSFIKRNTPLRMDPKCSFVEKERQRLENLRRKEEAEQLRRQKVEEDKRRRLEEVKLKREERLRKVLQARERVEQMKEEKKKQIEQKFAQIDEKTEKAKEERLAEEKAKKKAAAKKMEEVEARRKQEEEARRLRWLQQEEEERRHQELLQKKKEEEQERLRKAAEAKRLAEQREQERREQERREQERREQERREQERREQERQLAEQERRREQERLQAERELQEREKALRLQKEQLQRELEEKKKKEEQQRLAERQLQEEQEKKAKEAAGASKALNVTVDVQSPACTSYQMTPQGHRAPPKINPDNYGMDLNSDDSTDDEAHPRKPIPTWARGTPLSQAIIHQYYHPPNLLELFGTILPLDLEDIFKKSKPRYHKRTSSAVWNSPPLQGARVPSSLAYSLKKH

T1: FLAG-APEX2-TRF1 (human), P54274
T1 chain: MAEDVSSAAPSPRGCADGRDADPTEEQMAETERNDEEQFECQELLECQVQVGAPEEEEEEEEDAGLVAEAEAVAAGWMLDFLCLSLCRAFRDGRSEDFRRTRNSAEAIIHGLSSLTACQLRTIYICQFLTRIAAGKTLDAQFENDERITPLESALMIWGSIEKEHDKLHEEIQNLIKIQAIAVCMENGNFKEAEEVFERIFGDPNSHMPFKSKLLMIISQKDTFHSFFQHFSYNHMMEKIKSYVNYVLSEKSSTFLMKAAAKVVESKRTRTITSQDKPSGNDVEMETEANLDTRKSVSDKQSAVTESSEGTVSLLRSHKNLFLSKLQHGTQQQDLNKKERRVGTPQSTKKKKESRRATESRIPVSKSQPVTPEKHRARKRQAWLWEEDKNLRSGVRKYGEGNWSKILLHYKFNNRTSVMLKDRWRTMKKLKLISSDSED

B1: DSN1 (protein, UniProt Q9H410 1-356)
chain: MTSVTRSEIIDEKGPVMSKTHDHQLESSLSPVEVFAKTSASLEMNQGVSEERIHLGSSPKKGGNCDLSHQERLQSKSLHLSPQEQSASYQDRRQSWRRASMKETNRRKSLHPIHQGITELSRSISVDLAESKRLGCLLLSSFQFSIQKLEPFLRDTKGFSLESFRAKASSLSEELKHFADGLETDGTLQKCFEDSNGKASDFSLEASVAEMKEYITKFSLERQTWDQLLLHYQQEAKEILSRGSTEAKITEVKVEPMTYLGSSQNEVLNTKPDYQKILQNQSKVFDCMELVMDELQGSVKQLQAFMDESTQCFQKVSVQLGKRSMQQLDPSPARKLLKLQLQNPPAIHGSGSGSCQ
B2: SGOL2 (protein, UniProt Q562F6 1-1265)
chain: MECPVMETGSLFTSGIKRHLKDKRISKTTKLNVSLASKIKTKILNNSSIFKISLKHNNRALAQALSREKENSRRITTEKMLLQKEVEKLNFENTFLRLKLNNLNKKLIDIEALMNNNLITAIEMSSLSEFHQSSFLLSASKKKRISKQCKLMRLPFARVPLTSNDDEDEDKEKMQCDNNIKSKTLPDIPSSGSTTQPLSTQDNSEVLFLKENNQNVYGLDDSEHISSIVDVPPRESHSHSDQSSKTSLMSEMRNAQSIGRRWEKPSPSNVTERKKRGSSWESNNLSADTPCATVLDKQHISSPELNCNNEINGHTNETNTEMQRNKQDLPGLSSESAREPNAECMNQIEDNDDFQLQKTVYDADMDLTASEVSKIVTVSTGIKKKSNKKTNEHGMKTFRKVKDSSSEKKRERSKRQFKNSSDVDIGEKIENRTERSDVLDGKRGAEDPGFIFNNEQLAQMNEQLAQVNELKKMTLQTGFEQGDRENVLCNKKEKRITNEQEETYSLSQSSGKFHQESKFDKGQNSLTCNKSKASRQTFVIHKLEKDNLLPNQKDKVTIYENLDVTNEFHTANLSTKDNGNLCDYGTHNILDLKKYVTDIQPSEQNESNINKLRKKVNRKTEIISGMNHMYEDNDKDVVHGLKKGNFFFKTQEDKEPISENIEVSKELQIPALSTRDNENQCDYRTQNVLGLQKQITNMYPVQQNESKVNKKLRQKVNRKTEIISEVNHLDNDKSIEYTVKSHSLFLTQKDKEIIPGNLEDPSEFETPALSTKDSGNLYDSEIQNVLGVKHGHDMQPACQNDSKIGKKPRLNVCQKSEIIPETNQIYENDNKGVHDLEKDNFFSLTPKDKETISENLQVTNEFQTVDLLIKDNGNLCDYDTQNILELKKYVTDRKSAEQNESKINKLRNKVNWKTEIISEMNQIYEDNDKDAHVQESYTKDLDFKVNKSKQKLECQDIINKHYMEVNSNEKESCDQILDSYKVVKKRKKESSCKAKNILTKAKNKLASQLTESSQTSISLESDLKHITSEADSDPGNPVELCKTQKQSTTTLNKKDLPFVEEIKEGECQVKKVNKMTSKSKKRKTSIDPSPESHEVMERILDSVQGKSTVSEQADKENNLENEKMVKNKPDFYTKAFRSLSEIHSPNIQDSSFDSVREGLVPLSVSSGKNVIIKENFALECSPAFQVSDDEHEKMNKMKFKVNRRTQKSGIGDRPLQDLSNTSFVSNNTAESENKSEDLSSERTSRRRRCTPFYFKEPSLRDKMRR
B3: TIN2 (protein, UniProt Q9BSI4 1-451)
chain: MATPLVAGPAALRFAAAASWQVVRGRCVEHFPRVLEFLRSLRAVAPGLVRYRHHERLCMGLKAKVVVELILQGRPWAQVLKALNHHFPESGPIVRDPKATKQDLRKILEAQETFYQQVKQLSEAPVDLASKLQELEQEYGEPFLAAMEKLLFEYLCQLEKALPTPQAQQLQDVLSWMQPGVSITSSLAWRQYGVDMGWLLPECSVTDSVNLAEPMEQNPPQQQRLALHNPLPKAKPGTHLPQGPSSRTHPEPLAGRHFNLAPLGRRRVQSQWASTRGGHKERPTVMLFPFRNLGSPTQVISKPESKEEHAIYTADLAMGTRAASTGKSKSPCQTLGGRALKENPVDLPATEQKENCLDCYMDPLRLSLLPPRARKPVCPPSLCSSVITIGDLVLDSDEEENGQGEGKESLENYQKTKFDTLIPTLCEYLPPSGHGAIPVSSCDCRDSSRPL
B4: Borealin (protein, UniProt Q53HL2 1-280)
chain: MAPRKGSSRVAKTNSLRRRKLASFLKDFDREVEIRIKQIESDRQNLLKEVDNLYNIEILRLPKALREMNWLDYFALGGNKQALEEAATADLDITEINKLTAEAIQTPLKSAKTRKVIQVDEMIVEEEEEEENERKNLQTARVKRCPPSKKRTQSIQGKGKGKRSSRANTVTPAVGRLEVSMVKPTPGLTPRFDSRVFKTPGLRTPAAGERIYNISGNGSPLADSKEIFLTVPVGGGESLRLLASDLQRHSIAQLDPEALGNIKKLSNRLAQICSSIRTHK
B5: SPDL1 (protein, UniProt Q96EA4 1-605)
chain: MEADIITNLRCRLKEAEEERLKAAQYGLQLVESQNELQNQLDKCRNEMMTMTESYEQEKYTLQREVELKSRMLESLSCECEAIKQQQKMHLEKLEEQLSRSHGQEVNELKTKIEKLKVELDEARLSEKQLKHQVDHQKELLSCKSEELRVMSERVQESMSSEMLALQIELTEMESMKTTLKEEVNELQYRQEQLELLITNLMRQVDRLKEEKEEREKEAVSYYNALEKARVANQDLQVQLDQALQQALDPNSKGNSLFAEVEDRRAAMERQLISMKVKYQSLKKQNVFNREQMQRMKLQIATLLQMKGSQTEFEQQERLLAMLEQKNGEIKHLLGEIRNLEKFKNLYDSMESKPSVDSGTLEDNTYYTDLLQMKLDNLNKEIESTKGELSIQRMKALFESQRALDIERKLFANERCLQLSESENMKLRAKLDELKLKYEPEETVEVPVLKKRREVLPVDITTAKDACVNNSALGGEVYRLPPQKEETQSCPNSLEDNNLQLEKSVSIYTPVVSLSPHKNLPVDMQLKKEKKCVKLIGVPADAEALSERSGNTPNSPRLAAESKLQTEVKEGKETSSKLEKETCKKLHPILYVSSKSTPETQCPQQ
B6: TRF2 (endogenous), Q15554 1-542 (protein)
chain: MAAGAGTAGPASGPGVVRDPAASQPRKRPGREGGEGARRSDTMAGGGGSSDGSGRAAGRRASRSSGRARRGRHEPGLGGPAERGAGEARLEEAVNRWVLKFYFHEALRAFRGSRYGDFRQIRDIMQALLVRPLGKEHTVSRLLRVMQCLSRIEEGENLDCSFDMEAELTPLESAINVLEMIKTEFTLTEAVVESSRKLVKEAAVIICIKNKEFEKASKILKKHMSKDPTTQKLRNDLLNIIREKNLAHPVIQNFSYETFQQKMLRFLESHLDDAEPYLLTMAKKALKSESAASSTGKEDKQPAPGPVEKPPREPARQLRNPPTTIGMMTLKAAFKTLSGAQDSEAAFAKLDQKDLVLPTQALPASPALKNKRPRKDENESSAPADGEGGSELQPKNKRMTISRLVLEEDSQSTEPSAGLNSSQEAASAPPSKPTVLNQPLPGEKNPKVPKGKWNSSNGVEEKETWVEEDELFQVQAAPDEDSTTNITKKQKWTVEESEWVKAGVQKYGEGNWAAISKNYPFVNRTAVMIKDRWRTMKRLGMN

target: FLAG-APEX2-TRF1 (human) (UniProt P54274); test: proximity labelling; FLAG-APEX2-TRF1 in HeLa, G1/S thymidine block and release into 150 ng/mL nocodazole for 12, 14 or 16 h; APEX2 activated 60 s with biotin-phenol and H2O2; streptavidin pull-down, LC-MS/MS; compared with FLAG-APEX2 at the same times; conditions: not given

binding, binds:
B1, B2, B3, B4, B5

target: FLAG-APEX2-TRF1 (human) (UniProt P54274); test: as above; conditions: not given; remark: another data set of the same source

binding, binds:
BLM (from UniProt P54132 1-1417) (enzyme), Aurora Kinase B (from UniProt Q96GD4 1-344) (enzyme), CASC5 (from UniProt Q8NG31 1-2342), CENPE (from UniProt Q02224 1-2701), INCENP (from UniProt Q9NQS7 1-918)

Target: T1, FLAG-APEX2-TRF1 (human), P54274
Test: as above
Conditions: remark: other sources report otherwise

binding, binds:
B6
